According to publication PMC5576923:
These are yes or no findings as the source states them, for the method shown. In cells and extracts the contact can be indirect. Some results given as binding are weak or reduced against the parent protein; the word gives no strength.

The chains behind the UniProt entries cited, without tags or fusion partners.
UniProt P49407: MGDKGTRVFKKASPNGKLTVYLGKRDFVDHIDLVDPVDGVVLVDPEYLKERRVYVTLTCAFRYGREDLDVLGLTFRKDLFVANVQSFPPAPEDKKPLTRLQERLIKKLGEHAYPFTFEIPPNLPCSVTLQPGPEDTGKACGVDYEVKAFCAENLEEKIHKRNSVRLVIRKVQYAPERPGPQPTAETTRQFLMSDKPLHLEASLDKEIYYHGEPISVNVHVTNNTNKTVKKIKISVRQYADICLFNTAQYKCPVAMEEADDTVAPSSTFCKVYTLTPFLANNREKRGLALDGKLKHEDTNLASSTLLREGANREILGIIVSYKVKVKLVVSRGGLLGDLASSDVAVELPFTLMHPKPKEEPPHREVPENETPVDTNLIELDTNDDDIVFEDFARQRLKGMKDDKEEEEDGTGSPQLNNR
UniProt Q5T5U3: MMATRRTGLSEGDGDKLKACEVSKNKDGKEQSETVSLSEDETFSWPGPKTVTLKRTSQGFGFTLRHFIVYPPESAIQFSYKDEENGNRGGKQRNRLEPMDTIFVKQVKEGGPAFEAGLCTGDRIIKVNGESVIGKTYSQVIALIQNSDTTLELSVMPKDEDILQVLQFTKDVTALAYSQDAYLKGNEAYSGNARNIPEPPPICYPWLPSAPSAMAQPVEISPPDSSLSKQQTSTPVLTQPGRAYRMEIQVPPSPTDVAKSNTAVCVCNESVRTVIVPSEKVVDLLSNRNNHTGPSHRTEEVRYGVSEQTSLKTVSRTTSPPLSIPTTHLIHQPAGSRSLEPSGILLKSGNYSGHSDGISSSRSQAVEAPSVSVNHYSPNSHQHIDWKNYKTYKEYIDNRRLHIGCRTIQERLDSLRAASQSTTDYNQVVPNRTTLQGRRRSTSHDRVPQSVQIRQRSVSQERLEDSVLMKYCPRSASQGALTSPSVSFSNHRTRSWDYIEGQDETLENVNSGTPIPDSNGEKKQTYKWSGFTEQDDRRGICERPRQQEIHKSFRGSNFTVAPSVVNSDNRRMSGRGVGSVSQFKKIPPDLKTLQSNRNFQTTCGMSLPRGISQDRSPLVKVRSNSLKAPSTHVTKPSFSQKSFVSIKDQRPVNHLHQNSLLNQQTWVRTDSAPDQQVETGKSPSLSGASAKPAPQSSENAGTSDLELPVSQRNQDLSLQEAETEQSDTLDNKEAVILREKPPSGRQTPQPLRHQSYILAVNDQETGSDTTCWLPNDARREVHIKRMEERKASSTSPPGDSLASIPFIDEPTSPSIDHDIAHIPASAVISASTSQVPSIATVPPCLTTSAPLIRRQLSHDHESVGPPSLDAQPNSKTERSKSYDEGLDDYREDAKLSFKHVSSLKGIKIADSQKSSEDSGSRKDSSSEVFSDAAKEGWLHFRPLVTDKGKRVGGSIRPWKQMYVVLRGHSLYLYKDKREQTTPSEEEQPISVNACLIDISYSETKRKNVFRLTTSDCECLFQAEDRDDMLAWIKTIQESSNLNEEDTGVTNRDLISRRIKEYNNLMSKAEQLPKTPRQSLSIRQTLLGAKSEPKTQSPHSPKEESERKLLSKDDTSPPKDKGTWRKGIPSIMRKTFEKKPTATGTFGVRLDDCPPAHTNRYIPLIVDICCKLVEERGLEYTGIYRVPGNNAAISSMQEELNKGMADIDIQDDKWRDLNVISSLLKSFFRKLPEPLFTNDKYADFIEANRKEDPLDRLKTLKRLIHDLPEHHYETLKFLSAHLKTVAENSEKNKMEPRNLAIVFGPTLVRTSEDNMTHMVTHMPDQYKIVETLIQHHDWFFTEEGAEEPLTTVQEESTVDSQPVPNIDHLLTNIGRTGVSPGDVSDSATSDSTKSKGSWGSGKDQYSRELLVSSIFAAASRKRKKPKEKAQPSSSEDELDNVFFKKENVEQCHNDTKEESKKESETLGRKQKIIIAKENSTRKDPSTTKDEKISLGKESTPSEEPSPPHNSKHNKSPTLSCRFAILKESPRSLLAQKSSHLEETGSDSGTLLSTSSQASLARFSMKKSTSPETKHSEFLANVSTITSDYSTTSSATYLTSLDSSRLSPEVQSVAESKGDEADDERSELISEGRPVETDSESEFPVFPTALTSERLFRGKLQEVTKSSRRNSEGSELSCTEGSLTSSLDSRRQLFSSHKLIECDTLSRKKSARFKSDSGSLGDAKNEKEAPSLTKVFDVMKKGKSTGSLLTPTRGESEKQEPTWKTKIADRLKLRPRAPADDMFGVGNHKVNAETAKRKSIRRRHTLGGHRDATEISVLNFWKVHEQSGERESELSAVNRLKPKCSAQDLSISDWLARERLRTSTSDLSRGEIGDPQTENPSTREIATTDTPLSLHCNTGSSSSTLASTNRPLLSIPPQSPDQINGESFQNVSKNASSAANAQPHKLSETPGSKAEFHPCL

Key:
[1] = biological target: β-Arrestin1 (human (endogenous in Caco-2 and HCT116)) (UniProt P49407); assay: co-IP; membrane fractions of ShPTEN and PTEN-/- cells after transfection with GFP-EV, C2, C2-MCBR3, wt PTEN or PTEN-MCBR3; β-Arrestin1 bait, ARHGAP21 blotted; normalised against total ARHGAP21 in the membrane fraction
[2] = biological target: β-Arrestin1 (human (endogenous in Caco-2 and HCT116)) (UniProt P49407); assay: co-IP; whole-cell lysates (1% Triton X-100, 50 mM NaCl, Tris pH 7.5) of Caco-2, ShPTEN, HCT116 and PTEN-/- cells, also after transfection with GFP-EV, GFP-C2 or GFP-C2-MCBR3; β-Arrestin1 immunoprecipitated as bait, ARHGAP21 blotted; IgG negative controls; normalised against total ARHGAP21
[3] = biological target: β-Arrestin1 (human (endogenous in Caco-2 and HCT116)) (UniProt P49407); assay: co-IP; Caco-2 or HCT116 cells treated with 10 μM pep24 or 10 μM scrambled control peptide for 24 hr; β-Arrestin1 bait, ARHGAP21 blotted (the pair that is blocked)

Measured: binding

ARHGAP21 (from UniProt Q5T5U3 1-1958)
binds: all assays above
